Source: PubChem BioAssay AID2551 (National Center for Advancing Translational Sciences (NCATS), 2010)
In all, about 310,000 compounds went through this assay and about 17,000 (5.5%) were called active. Inconclusive means that the source gave no clear call. Such entries were picked first, then a sample of the others. Calls come from the whole dose curve; as a rule, active = well fitted inhibition curve with a large enough effect; inconclusive = small, poorly fitted or top-dose-only effect, or effect the other way; inactive = no such curve, though single readings can be large or run the other way. Where the call is inconclusive, the potency comes from a doubtful curve fit.

Amino acid sequences for entries named in this document (tags omitted). A change or cut given only in a name is not applied to a line headed by its entry.
UniProt P51450: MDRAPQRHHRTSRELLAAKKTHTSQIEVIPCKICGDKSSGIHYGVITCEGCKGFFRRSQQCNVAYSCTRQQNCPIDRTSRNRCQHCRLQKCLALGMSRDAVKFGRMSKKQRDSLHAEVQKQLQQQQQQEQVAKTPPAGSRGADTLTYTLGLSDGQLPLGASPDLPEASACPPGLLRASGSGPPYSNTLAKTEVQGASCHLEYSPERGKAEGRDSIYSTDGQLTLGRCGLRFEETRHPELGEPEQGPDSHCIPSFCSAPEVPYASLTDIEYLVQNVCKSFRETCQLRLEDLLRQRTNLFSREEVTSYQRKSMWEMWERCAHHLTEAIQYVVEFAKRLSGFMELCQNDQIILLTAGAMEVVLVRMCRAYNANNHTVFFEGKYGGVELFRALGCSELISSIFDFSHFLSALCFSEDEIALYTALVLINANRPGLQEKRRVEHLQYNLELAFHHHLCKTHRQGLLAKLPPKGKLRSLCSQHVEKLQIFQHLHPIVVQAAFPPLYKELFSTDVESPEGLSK

target: Nuclear receptor ROR-gamma (Mus musculus) (UniProt P51450); assay: qHTS for inhibitors of ROR gamma transcriptional activity; details: Drosophila S2 Gal4-RORgamma UAS-luciferase reporter, 20 h; series mostly up to 53.6 µM; note: nearly all actives have a fitted effect of over 60% in size
In short: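 Read-out: Photinus luciferase luminescence; inhibitors lower reporter signal. Insect Schneider cells with Gal4-ROR gamma fusion under metallothionein promoter, UAS reporter; 700 uM final copper sulfate induction, 20 hr, ambient temperature.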
Potency is the fitted concentration of half-maximal effect.

SMILES	Potency
CCOc1ccc(NC(=O)c2cnsn2)cc1	inconclusive: 25.1 µM [inhibitor, single point]
Cc1ccc(Cn2nnc3c(=O)[nH]c(C4CCN(S(=O)(=O)c5ccccc5F)CC4)nc32)cc1	inactive
O=C(Nc1cc(Cl)cc(Cl)c1)C(NCC1CCCO1)c1ccccc1 (stereo not drawn)	inactive
COc1cc(NC(=S)Nc2ccccn2)cc(OC)c1OC	active: 3.55 µM
C=CCn1cc(C(=O)c2cc(Br)ccc2O)cc(C#N)c1=O	inactive
COC(=O)c1ccc(OS(=O)(=O)c2ccc(NC(C)=O)cc2)cc1	inconclusive: 12.6 µM [activator, partial curve]
COc1cc(OC)cc(C(=O)N[C@H](C(=O)NCc2ccc(F)cc2)C(C)C)c1	inactive
O=C(Cc1cccs1)N/N=C/C(Br)=C/c1ccccc1	inconclusive: 31.6 µM [inhibitor, single point]
N#CCC(=O)Nc1ncc(Cc2ccccc2Cl)s1	active: 12.6 µM
CCCc1c(C(=O)N/N=C(\C)CCc2ccc(OC)cc2)nnn1-c1nonc1N	inconclusive: 15.8 µM [inhibitor, single point]
CCOC(=O)N1CCN(c2ccc(S(=O)(=O)N(Cc3ccccc3)Cc3ccccc3)cn2)CC1	inactive
O=C(Nc1cccc(-c2cn3ccccc3n2)c1)c1cccc(Cl)c1	inconclusive: 3.16 µM [inhibitor, single point]
Cc1ccccc1OCC(=O)NC(=S)Nc1ccccc1N1CCN(S(C)(=O)=O)CC1	active: 10 µM
COc1ccc(N2CCN(C(=O)c3cc(N4C(=O)C5C6CCC(C6)C5C4=O)ccc3Cl)CC2)cc1 (stereo not drawn)	inconclusive: 12.6 µM [activator, single point]
CC(N=C1NS(=O)(=O)c2ccccc21)C(=O)N1CCc2ccccc2C1 (stereo not drawn)	inconclusive: 35.5 µM [activator, single point]
O=C(CCC(=O)Nc1ccc(Br)cc1)N/N=C/c1ccccc1O	inconclusive: 5.62 µM [inhibitor, partial curve]
COc1ccc(NC(=O)c2cc3sccc3n2Cc2ccc(F)cc2)cc1OC	inconclusive: 12.6 µM [activator, partial curve]
Cc1nc(NCc2ccc3c(c2)OCO3)c2oc3ccccc3c2n1	inconclusive: 0.708 µM [activator, single point]
CC1CCN(c2ccc(NC(=O)c3cccnc3)cc2)CC1	inconclusive: 35.5 µM [activator, single point]
Cc1cc(/C=C2/SC(=S)N(c3ccc([N+](=O)[O-])cc3)C2=O)c(C)n1-c1cccnc1	active: 3.16 µM
CCCc1cc(-c2nc(N)ncc2-c2ccc3c(c2)OCCCO3)c(O)cc1OC	inactive
CCc1nnc(NS(=O)(=O)c2ccc(NC(=O)c3cc(Cl)ccc3OC)cc2)s1	inactive
COc1cccc(NC(=O)Nc2nnc(N3C(C)CCCC3C)s2)c1 (stereo not drawn)	inactive
COc1cccc(CN2CC(C(=O)NCCCc3ccc(C)cc3)CCC2=O)c1 (stereo not drawn)	inconclusive: 7.94 µM [activator, partial curve]
COc1cccc(Cn2c(=O)c(-c3cc(F)cc(F)c3)nc3cnc(N(C)C)nc32)c1	inactive

SMILES	Potency
O=c1cc(NCCc2ccccc2)c2ccccc2o1	inconclusive: 3.16 µM [activator, partial curve, poor fit]
CCN(CC)C(=O)c1ccc(S(=O)(=O)N2CCC(c3nc4ccccc4s3)CC2)cc1	inconclusive: 22.4 µM [activator, partial curve]
S=C1NC2=C(CCCC2)C2(CCCCC2)N1	active: 2 µM
CN1C(=O)C2(C(C#N)=C(N)Oc3n[nH]c(-c4ccc(Cl)cc4)c32)c2ccccc21 (stereo not drawn)	inconclusive: 20 µM [inhibitor, single point]
N#Cc1c(-c2ccco2)cc(-c2ccccn2)nc1N	active: 10 µM
Cc1cc(NCc2ccccn2)n2ncc(-c3ccc(Cl)cc3)c2n1	active: 0.0447 µM
Cc1cc(C(=O)N2CCCC(C(=O)c3cccc4ccccc34)C2)nc(C)n1 (stereo not drawn)	inconclusive: 0.891 µM [activator, full curve]
CC(C(=O)N1CCN(c2ccc(Cl)cc2)CC1)c1ncc(C(F)(F)F)cc1Cl (stereo not drawn)	inconclusive: 20 µM [activator, single point]
Cc1ccc(/C=C/c2nnc(-c3cccs3)o2)cc1	inconclusive: 12.6 µM [inhibitor, single point]
C=CCNC(=S)Nc1ccc(N2CCOCC2)c(S(=O)(=O)Nc2ccccc2Cl)c1	inconclusive: 12.6 µM [inhibitor, single point]
C[C@]12CCC(=O)C=C1CC[C@@H]1C2[C@@H](O)C[C@@]2(C)[C@H]1CC[C@]2(O)C(=O)CO (stereo partly drawn)	inactive
Cc1nc2ccc(NC(=O)c3ccc(S(=O)(=O)N(C)c4ccccc4)cc3)cc2s1	inconclusive: 12.6 µM [activator, partial curve]
O=S(=O)(Nc1ccc(O)c(NS(=O)(=O)c2ccccc2)c1)c1ccccc1	inactive
C/C(=N\NC(=O)c1ccccc1[N+](=O)[O-])c1c(O)cc(C)oc1=O	active: 3.16 µM
CC(=O)c1c(C)[nH]c(C(=O)CSc2nnc3ccccn23)c1C	inactive
CCOC(=O)COc1ccc2ccccc2c1/C=C/[N+](=O)[O-]	active: 12.6 µM
CC(C)Cc1nc2oc3c(N4CCN(CCO)CC4)ncnc3c2c2c1CCCC2	inconclusive: 0.178 µM [inhibitor, full curve, poor fit]
Cc1ccnc(NC(=O)Cc2ccc(-c3ccccc3)cc2)c1	active: 11.2 µM
CCCCNC(=S)N/N=C1\C(=O)c2cccc3cccc1c23	inconclusive: 0.126 µM [inhibitor, full curve, poor fit]
COc1ccc(O[C@H]2C=C[C@@H](c3ccccc3)O[C@@H]2COC(=O)CC/C(C)=N/O[C@@H](C)c2cn([C@H](CO)Cc3ccccc3)nn2)cc1	inconclusive: 15.8 µM [activator, single point]
Cc1ccc(-c2cnc3ccccc3n2)cc1C	active: 10 µM
O=C(NN1CCOCC1)c1ccc(S(=O)(=O)N2CCCCC2)cc1	inactive
NC(=O)c1c(NC(=O)c2cc3ccccc3o2)sc2c1CCC2	inconclusive: 25.1 µM [inhibitor, single point]
O=C(c1cccc(C(F)(F)F)c1)C1CCCN(C(=O)CCn2cnnn2)C1 (stereo not drawn)	inactive
CCOC(=O)N1N=C(c2ccc(OC)cc2)CC1(O)C(F)(F)F (stereo not drawn)	inconclusive: 10 µM [inhibitor, partial curve, poor fit]

SMILES	Potency
COc1ccc(S(=O)(=O)N/N=C\c2ccc([N+](=O)[O-])o2)c(OC)c1	inactive
O=C(OCC(F)(F)F)c1cccc(COc2ccc3ccccc3c2)c1	inconclusive: 12.6 µM [inhibitor, single point]
CN(C)S(=O)(=O)N(CC(=O)N1CCC(Cc2ccccc2)CC1)c1ccccc1	inconclusive: 12.6 µM [activator, single point]
O=C(/C=C/c1ccc([N+](=O)[O-])o1)NNC(=O)c1ccc(F)cc1	active: 2.82 µM
NC(=S)Cc1ccccc1Cl	active: 10 µM
C=CCn1c(-c2cc(OC)cc(OC)c2)n[nH]c1=S	inconclusive: 15.8 µM [inhibitor, single point]
CC(=O)Nc1ccc(C(=O)Nc2ccc(S(=O)(=O)N3CCOCC3)cc2)cc1	inactive
Cc1[nH]c2ccccc2c1Cc1nnc(SCc2ccccc2)o1	inconclusive: 17.8 µM [activator, single point]
O=C(Nc1ccccc1C(=O)N/N=C/c1ccco1)c1ccccc1	active: 7.94 µM
O=c1[nH]c2ccc(NS(=O)(=O)c3ccc4ccccc4c3)cc2[nH]1	inconclusive: 22.4 µM [activator, single point]
Cc1nn(-c2cccc(Cl)c2)c2nc(-c3ccncc3)cc(C(=O)N3CCOCC3)c12	inconclusive: 17.8 µM [inhibitor, single point]
CCOc1c2ccc(C(=O)NCc3cc(C(F)(F)F)cc(C(F)(F)F)c3)cc2nn1C	inconclusive: 35.5 µM [inhibitor, single point]
CN(CCC1CCOCC1)C(=O)CC1C(=O)NCCN1Cc1cccc(F)c1 (stereo not drawn)	inactive
Cc1cccc(OCC(=O)Nc2ccc(NC(=O)c3ccco3)c(C)c2)c1	inactive
CC1(C)Cc2c(sc3nc(-c4cccs4)n(N)c(=O)c23)CO1	inconclusive: 4.47 µM [activator, partial curve]
O=C(CSc1nc2ccccc2c(=O)[nH]1)Nc1nc(-c2ccc(Br)cc2)cs1	inconclusive: 35.5 µM [inhibitor, single point]
CCn1c(C)nc2cc(-c3nnc(-c4c(-c5ccccc5)noc4C)o3)ccc21	inconclusive: 12.6 µM [inhibitor, partial curve]
Cc1cc(NC(=O)/C=C/c2ccccc2)no1	inconclusive: 7.08 µM [activator, partial curve]
Cc1cc(O)c(/C=N/Nc2ccc(Cl)cc2)c(=O)o1	inconclusive: 8.91 µM [inhibitor, partial curve, poor fit]
COc1cc(/C=N/Nc2nn3cnnc3c3ccccc23)cc(OC)c1OC	inconclusive: 35.5 µM [inhibitor, single point]
Cc1cc(C)cc(C(=O)NC(=S)Nc2ccc(Cc3ccncc3)cc2)c1	active: 7.94 µM
Fc1cccc(CSc2ccc(-c3ccco3)nn2)c1	inactive
Cc1ccc([N+](=O)[O-])cc1N=Nc1c(-c2ccc([N+](=O)[O-])cc2)[nH]n(C(N)=S)c1=O	active: 0.316 µM

Looked up by compound from the entries so far, 5 records:
SMILES	Potency
COc1ccc(S(=O)(=O)N/N=C\c2ccc([N+](=O)[O-])o2)c(OC)c1	inactive
Cc1nn(-c2cccc(Cl)c2)c2nc(-c3ccncc3)cc(C(=O)N3CCOCC3)c12	inconclusive: 17.8 µM [inhibitor, single point]
Cc1cccc(OCC(=O)Nc2ccc(NC(=O)c3ccco3)c(C)c2)c1	inactive
CN(C)S(=O)(=O)N(CC(=O)N1CCC(Cc2ccccc2)CC1)c1ccccc1	inconclusive: 12.6 µM [activator, single point]
CC1(C)Cc2c(sc3nc(-c4cccs4)n(N)c(=O)c23)CO1	inconclusive: 4.47 µM [activator, partial curve]
